Experimental findings from US7858741B2 (Wisconsin Alumni Research Foundation, priority 2008, dated 2010) are described below.

This series can be described thus: Fmoc solid-phase peptide synthesis; 2-chlorotrityl chloride resin (loading 1.6 mmol/g); HBTU, DIEA, HOBt. Particulars: whole synthesis, analytical HPLC.

On to (Pro-Mop-Gly)10, for which the “final HPLC purity” value is recorded as greater than 90%.
